Results are given in words; binding and its absence hold for the method and conditions named. Some entries that bind do so weakly or less than the wild type.

Experiment [1] addresses T1, recombinant mouse NSP4 (form not stated) (mouse, UniProt Q14B24 40-284, limits assumed).
T1 construct: also called mNSP4; soluble mNSP4
T1 sequence (looked up): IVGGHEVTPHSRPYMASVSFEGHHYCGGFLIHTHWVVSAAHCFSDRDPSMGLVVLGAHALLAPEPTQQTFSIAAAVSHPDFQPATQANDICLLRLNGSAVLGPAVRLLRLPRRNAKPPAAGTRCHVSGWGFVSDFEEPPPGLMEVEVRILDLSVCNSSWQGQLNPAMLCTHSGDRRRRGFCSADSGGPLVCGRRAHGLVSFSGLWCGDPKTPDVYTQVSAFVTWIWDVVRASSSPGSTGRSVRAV
The experiment can be described thus: competition phage ELISA (phage IC50) with soluble mNSP4 competitor, A450.

Experiment [2] deals with T1, recombinant mouse NSP4 (form not stated). The experiment can be described thus: BLI; antibody on sensor, 50 nM mouse NSP4 preincubated with buffer or Fab 5-1. (In general: BLI is a label-free optical method that tracks binding on a fibre tip over time.)
The target is the same in experiment [3]. The experiment can be described thus: BLI; antibody on sensor, 50 nM mouse NSP4 preincubated with buffer or 10 ug/ml heparin sulfate.
Experiment [4] has as its target T2, mouse zymogen NSP4 (mZ) (mouse, UniProt Q14B24 36-284).
T2 construct: mature; Expressed in CHO cells; also called mZ-NSP4; mZ (NSP4); not shown: N-terminal FLAG tag cleavable by enteropeptidase (cleavage after Asp-Asp-Asp-Asp-Lys)
T2 sequence (looked up): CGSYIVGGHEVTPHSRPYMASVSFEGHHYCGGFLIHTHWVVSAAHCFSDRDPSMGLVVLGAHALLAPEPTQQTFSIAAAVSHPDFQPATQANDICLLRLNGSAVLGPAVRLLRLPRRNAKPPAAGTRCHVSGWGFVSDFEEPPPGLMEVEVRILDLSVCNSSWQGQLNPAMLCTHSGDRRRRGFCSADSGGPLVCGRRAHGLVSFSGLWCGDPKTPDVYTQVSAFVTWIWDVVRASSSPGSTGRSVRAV
The experiment in a line: biolayer interferometry; human IgG1.

Experiment [5] has as its target T2, mouse zymogen NSP4 (mZ). The experiment can be described thus: BLI; IgG1 on anti-human Fc sensor, NSP4 variant in solution, concentration not on sheet.
The target in experiment [6] is T1, recombinant mouse NSP4 (form not stated). The experiment in a line: phage IC50 assay.

B1: anti-NSP4 antibody 5-1 (antibody, human IgG1, V domains shown)
VH: EVQLVESGGGLVQPGGSLRLSCAASGFTFSGSGIHWVRQAPGKGLEWVAWISPTGGNTYYADSVKGRFTISADTSKNTAYLQMNSLRAEDTAVYYCAKSLFHNVAFDYWGQGTLVTVSS
VL: DIQMTQSPSSLSASVGDRVTITCRASQDVSTAVAWYQQKPGKAPKLLIYSASFLYSGVPSRFSGSGSGTDFTLTISSLQPEDFATYYCQQSYTTPPTFGQGTKVEIKR
As to B1, the binding entry in experiment [1], in experiment [2] and in experiment [3] was “binds” in each case.

B2: anti-NSP4 antibody 5-4 (antibody, V domains shown)
VH: EVQLVESGGGLVQPGGSLRLSCAASGFTFTSYAISWVRQAPGKGLEWVAGISPSNGYTNYADSVKGRFTISADTSKNTAYLQMNSLRAEDTAVYYCARAGRWTHSDIDYWGQGTLVTVSS
VL: DIQMTQSPSSLSASVGDRVTITCRASQDVSTAVAWYQQKPGKAPKLLIYSASFLYSGVPSRFSGSGSGTDFTLTISSLQPEDFATYYCQQSYTTPPTFGQGTKVEIKR
On to B2, for which the binding result in experiment [2] and in experiment [3] was “binds” each time.

B3: anti-NSP4 antibody 2-4 (antibody, human IgG1, V domains shown)
VH: EVQLVESGGGLVQPGGSLRLSCAASGFTFSDYWISWVRQAPGKGLEWVAGISPNNGDTYYADSVKGRFTISADTSKNTAYLQMNSLRAEDTAVYYCAREDDDERDYAMDYWGQGTLVTVSS
VL: DIQMTQSPSSLSASVGDRVTITCRASQDVSTAVAWYQQKPGKAPKLLIYSASFLYSGVPSRFSGSGSGTDFTLTISSLQPEDFATYYCQQSYTTPPTFGQGTKVEIKR
notes: also called clone 2-4
B3: the binding entry in experiment [4] and in experiment [5] was “binds” throughout.

B4: affinity matured anti-NSP4 antibody clone 35.77 (Fab, V domains shown)
VH: EVQLVESGGGLVQPGGSLRLSCAASGFTFSGSGIHWVRQAPGKGLEWVAWISPTGGNTYYADSVKGRFTISADTSKNTAYLQMNSLRAEDTAVYYCAKRHLHNVAFDYWGQGTLVTVSS
VL: DIQMTQSPSSLSASVGDRVTITCRASQDVSTAVAWYQQKPGKAPKLLIYSASFLYSGVPSRFSGSGSGTDFTLTISSLQPEDFATYYCQQAYSAPPTFGQGTKVEIKR
As for B4, the binding result in experiment [6] and in experiment [1] was “binds” each time.

B5: affinity matured anti-NSP4 antibody clone 51.51 (Fab, V domains shown)
VH: EVQLVESGGGLVQPGGSLRLSCAASGFTFSGSGIHWVRQAPGKGLEWVAWISPTGGNTYYADSVKGRFTISADTSKNTAYLQMNSLRAEDTAVYYCARGLFHNVAFDYWGQGTLVTVSS
VL: DIQMTQSPSSLSASVGDRVTITCRASQDVSTAVAWYQQKPGKAPKLLIYSASFLYSGVPSRFSGSGSGTDFTLTISSLQPEDFATYYCQQSYTAPPTFGQGTKVEIKR
For B5, the binding result in experiment [6] and in experiment [1] was “binds” each time.

B6: anti-NSP4 antibody 2-3 (antibody, human IgG1, V domains shown)
VH: EVQLVESGGGLVQPGGSLRLSCAASGFTFTDSDISWVRQAPGKGLEWVAWISPSDGATDYADSVKGRFTISADTSKNTAYLQMNSLRAEDTAVYYCAHEASDDDYAIDYWGQGTLVTVSS
VL: DIQMTQSPSSLSASVGDRVTITCRASQDVSTAVAWYQQKPGKAPKLLIYSASFLYSGVPSRFSGSGSGTDFTLTISSLQPEDFATYYCQQSYTTPPTFGQGTKVEIKR
notes: also called clone 2-3
In the case of B6, the binding result in experiment [4] and in experiment [5] was “binds” throughout.

B7: affinity matured anti-NSP4 antibody clone 51.82 (Fab, V domains shown)
VH: EVQLVESGGGLVQPGGSLRLSCAASGFTFSGSGIHWVRQAPGKGLEWVAWISPTGGNTYYADSVKGRFTISADTSKNTAYLQMNSLRAEDTAVYYCARGLFHNVAFDYWGQGTLVTVSS
VL: DIQMTQSPSSLSASVGDRVTITCRASQDVSTAVAWYQQKPGKAPKLLIYSASFLYSGVPSRFSGSGSGTDFTLTISSLQPEDFATYYCQQTYNAPPTFGQGTKVEIKR
For the molecule B7, the binding result in experiment [6] and in experiment [1] was “binds” throughout.

B8: anti-NSP4 antibody 5-2 (antibody, V domains shown)
VH: EVQLVESGGGLVQPGGSLRLSCAASGFTFSNTYISWVRQAPGKGLEWVGFIYPANGATYYADSVKGRFTISADTSKNTAYLQMNSLRAEDTAVYYCARRYRLSFDYWGQGTLVTVSS
VL: DIQMTQSPSSLSASVGDRVTITCRASQDVSTAVAWYQQKPGKAPKLLIYSASFLYSGVPSRFSGSGSGTDFTLTISSLQPEDFATYYCQQSYTTPPTFGQGTKVEIKR
As for B8, the binding entry in experiment [2] and in experiment [3] was “binds” throughout.

B9: affinity matured anti-NSP4 antibody clone 51.30 (Fab, V domains shown)
VH: EVQLVESGGGLVQPGGSLRLSCAASGFTFSGSGIHWVRQAPGKGLEWVAWIPTAGGNTYYADSVKGRFTISADTSKNTAYLQMNSLRAEDTAVYYCAKSLFHNVAFDYWGQGTLVTVSS
VL: DIQMTQSPSSLSASVGDRVTITCRASQDVSTAVAWYQQKPGKAPKLLIYSASFLYSGVPSRFSGSGSGTDFTLTISSLQPEDFATYYCQQSYTAPPTFGQGTKVEIKR
Turning to B9, the binding entry in experiment [6] and in experiment [1] was “binds” throughout.

B10: anti-NSP4 antibody 2-1 (antibody, human IgG1, V domains shown)
VH: EVQLVESGGGLVQPGGSLRLSCAASGFTFTDYSIHWVRQAPGKGLEWVAEIYPYSGDTYYADSVKGRFTISADTSKNTAYLQMNSLRAEDTAVYYCARDGDGWFDWAMDYWGQGTLVTVSS
VL: DIQMTQSPSSLSASVGDRVTITCRASQDVSTAVAWYQQKPGKAPKLLIYSASFLYSGVPSRFSGSGSGTDFTLTISSLQPEDFATYYCQQSYTTPPTFGQGTKVEIKR
notes: also called clone 2-1
On to B10, for which the binding result in experiment [4] and in experiment [5] was “binds” each time.

B11: affinity matured anti-NSP4 antibody clone 51.50 (Fab, V domains shown)
VH: EVQLVESGGGLVQPGGSLRLSCAASGFTFSGSGIHWVRQAPGKGLEWVAWISPTGGNTYYADSVKGRFTISADTSKNTAYLQMNSLRAEDTAVYYCAKSLFHNVAFDYWGQGTLVTVSS
VL: DIQMTQSPSSLSASVGDRVTITCRASQDVSTAVAWYQQKPGKAPKLLIYSASFLYSGVPSRFSGSGSGTDFTLTISSLQPEDFATYYCQQANSTPPTFGQGTKVEIKR
As to B11, the binding result in experiment [6] and in experiment [1] was “binds” each time.

B12: affinity matured anti-NSP4 antibody clone 51.72 (Fab, V domains shown)
VH: EVQLVESGGGLVQPGGSLRLSCAASGFTFSGSGIHWVRQAPGKGLEWVAWISPTGGNTYYADSVKGRFTISADTSKNTAYLQMNSLRAEDTAVYYCAKSLFHNVAFDYWGQGTLVTVSS
VL: DIQMTQSPSSLSASVGDRVTITCRASQDVSTAVAWYQQKPGKAPKLLIYSASFLYSGVPSRFSGSGSGTDFTLTISSLQPEDFATYYCQQSYTAPPTFGQGTKVEIKR
As to B12, the binding result in experiment [6] and in experiment [1] was “binds” throughout.

B13: affinity matured anti-NSP4 antibody clone 51.59 (Fab, V domains shown)
VH: EVQLVESGGGLVQPGGSLRLSCAASGFTFSGSGIHWVRQAPGKGLEWVAWISPTGGNTYYADSVKGRFTISADTSKNTAYLQMNSLRAEDTAVYYCARVFFHNVAFDYWGQGTLVTVSS
VL: DIQMTQSPSSLSASVGDRVTITCRASQDVSTAVAWYQQKPGKAPKLLIYSASFLYSGVPSRFSGSGSGTDFTLTISSLQPEDFATYYCQQNFSSPPTFGQGTKVEIKR
As for B13, the binding entry in experiment [6] and in experiment [1] was “binds” throughout.
